Values from PubChem BioAssay AID743121 (NCATS, 2013)
Here is an unselected part of about 26,000 reagents tested. In the full data, 167 (0.63%) got an active call. 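Calls are per gene from RSA p-values that are not deposited; an individual active-marked siRNA can sensitise only weakly.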 Entries without a mark were called inactive. The numbers tell different reagents against one gene apart.

- Assay: 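Partners whose loss is lethal together with topoisomerase I blockade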 (primary screen)
- Cell system: MDA-MB-231 cells, a human breast cancer line
- Knock-down reagent: single siRNA against human genes, 20 nM siRNA (0.8 pmol per well)
- Time to read-out: 120 h (drug added 48 h after transfection, read 72 h later)
- Treatment: camptothecin 20 nM (about EC30) for 72 h; vehicle 0.1% DMSO in parallel plates
- Measured: 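CellTiter-Glo ATP signal, scaled to control siRNA as percent viability; sensitisation given as log2 of untreated divided by camptothecin-treated viability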
- Scale: log2 vehicle/camptothecin viability: higher = stronger sensitisation to camptothecin; viability with camptothecin and viability without drug: higher = more viable cells
- Active means: 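Each gene scored by redundant siRNA activity (RSA) over its individual siRNA ratios; a gene is called active at p < 0.001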

gene knocked down	reagent no.	log2 vehicle/camptothecin viability	viability with camptothecin (% of control)	viability without drug (% of control)
MAP3K11	1	-0.75	59.8	35.5
MAP3K11	2	1.01	12.1	24.3
MAP3K11	3	-0.527	82.7	57.4
MAP3K11	4	-0.821	42.5	24.1
WNT3A	1	-0.383	74.8	57.4
WNT3A	2	-0.222	88.4	75.8
WNT3A	3	-0.555	106	72.3
CHRND	1	-0.481	72.5	51.9
CHRND	2	0.038	22.4	23
CHRND	3	-0.378	63.2	48.6
CHRND	4	-0.271	54.1	44.8
GUK1	1	-0.427	65.5	48.7
GUK1	2	-0.262	68.1	56.8
GUK1	3	-0.168	79.5	70.8
GUK1	4	-0.612	48.5	31.7

Ordered by “viability with camptothecin (% of control)” (ascending): some entries from above.
gene knocked down	reagent no.	log2 vehicle/camptothecin viability	viability with camptothecin (% of control)	viability without drug (% of control)
WNT3A	2	-0.222	88.4	75.8
WNT3A	3	-0.555	106	72.3

Further reagents:
gene knocked down	reagent no.	log2 vehicle/camptothecin viability	viability with camptothecin (% of control)	viability without drug (% of control)
ANTXR2	1	-0.169	107	94.9
ANTXR2	2	-0.0666	95.8	91.5
ANTXR2	3	0.149	90.7	101
ANTXR2	4	-0.333	63.7	50.6
IGFBP3	1	-0.448	91.6	67.1
IGFBP3	2	-0.153	64.2	57.8
IGFBP3	3	0.126	101	110
BCS1L	1	-0.461	110	79.6
BCS1L	2	0.159	50.1	55.9
BCS1L	3	-0.0295	99.6	97.6
BCS1L	4	-0.366	77.8	60.4
BCS1L	5	-0.579	44.8	30
BCS1L	6	-0.363	103	79.7
BCS1L	7	0.778	47.5	81.4
BCS1L	8	0.503	49.4	70
